At least one compound was matched to its structure with a doubt left.
Test system: circumflex coronary artery
Test: Thallium-201 scintigram in anesthetized dogs with stenosed circumflex coronary artery
Type: in vivo
Conditions: dog, adenosine 372 μg/kg/min for 6 minutes, Compound A 0.6 μg/kg/min
Excerpt: Dogs were anesthetized and their circumflex coronary artery was stenosed to produce a cardiac perfusion deficit.

Nc1nc(NN=CC2CCCCC2)nc2c1ncn2[C@@H]1O[C@H](CO)[C@@H](O)[C@H]1O [Compound A]
perfusion defect shown on thallium-201 scintigram: showed very clear evidence of a perfusion deficit

Source: US5477857A, “Diagnostic uses of hydrazinoadenosines” (priority 1993, dated 1995)
